Hit rate of the full screen: of about 340,000 compounds, about 6,200 (1.8%) were called active. This list was built around the results that the source calls inconclusive (neither active nor inactive); the mix of calls is not that of the screen. The call rests on the fitted dose curve; in most records, active means well fitted activation curve with a large enough effect; inconclusive means small, poorly fitted or top-dose-only effect; inactive means no such curve, though single readings can be large or run the other way. A potency beside an inconclusive call is a rough fit, not a confirmed value.
Test: A quantitative high throughput screen for small molecules that induce DNA re-replication in SW480 colon adenocarcinoma cells. Further: nearly all actives have a fitted effect of over 55% in size. On re-replication activation: % of control where 0% means no effect.
Conditions: Hoechst DNA content imaging, 48 h; re-replication activation: at 46.1 µM (top of the series) unless noted
Method in brief: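 Image-based DNA-content assay: after two days of treatment, nuclei were labelled with the DNA dye Hoechst and imaged, and hits were compounds raising the count of nuclei showing high fluorescence intensity.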
Potency means the concentration at half of the fitted maximal effect.

Structure (SMILES)	re-replication activation	Potency
CCn1nc(C)c(NC(=O)CCSc2nc(-c3ccco3)cc(C(F)(F)F)n2)c1C	inactive: -2.37%	
CCCC(=O)Nc1ccc2nc(SCC(=O)Nc3ccc(N4CCOCC4)c(Cl)c3)sc2c1		inconclusive: 20.6 µM [activator, partial curve, poor fit]
COc1ccc(C(O)(CCc2ccccc2)CCN2CCCCC2)cc1 (centres undefined)		inconclusive: 16.4 µM [activator, single point]
CNC(=O)c1c(NC(=O)c2ccc(S(=O)(=O)N(C)c3ccccc3)cc2)sc2c1CCN(C(C)C)C2		inconclusive: 18.4 µM [activator, single point]
O=C(Nc1nccs1)c1ccc(Br)cc1		active: 14.6 µM
COc1cccc(C(=O)N2CCC(n3nccc3NC(=O)CCOc3ccccc3)CC2)c1		inconclusive: 18.4 µM [activator, single point]
COc1cc2oc3ccc(C#Cc4ccccn4)cc3c(=O)c2cc1OC		inconclusive: 20.6 µM [activator, partial curve, poor fit]
Cc1cnn(CCC(=O)NNC(=S)Nc2ccccc2)c1		inconclusive: 31.6 µM [activator, single point]
CC(=O)c1ccc(S(=O)(=O)N(C)CCCC(=O)NCc2ccc3c(c2)OCO3)cc1	inactive: 1.58%	
CCOC(=O)C1CCCN(S(=O)(=O)c2ccc(Br)s2)C1 (centres undefined)		inconclusive: 18.4 µM [activator, partial curve, poor fit]
Nc1c(Cl)cc(C2=NCCn3nc4ccccc4c32)cc1Cl	inactive: 2.96%	
c1ccc(CNc2nc3ccccc3n2CCN2CCOCC2)nc1		inconclusive: 23.1 µM [activator, single point]
CCc1c(O)nc(SCC(=O)Nc2ccccc2)n(C(C)CC)c1=O (centres undefined)		inconclusive: 20.6 µM [activator, single point]
Cc1noc(C)c1COC(=O)c1ccccc1NC(=O)c1ccco1		inconclusive: 0.259 µM [activator, single point]
O=C(C[n+]1cc(Br)cc2ccccc21)c1ccccc1		inconclusive: 3.26 µM [activator, full curve]
O=C(/C=C/c1ccc(F)cc1)c1ccc(N2CCOCC2)cc1		inconclusive: 6.51 µM [activator, partial curve]
O=C(NC1CC2CCCC(C1)N2S(=O)(=O)c1ccccc1)c1ccco1 (centres undefined)		inconclusive: 29.1 µM [activator, single point]
CCOCCCNC(=O)c1cc2c(=O)n3cccc(C)c3nc2n1C		active: 0.651 µM
O=C(CSc1ccc2nnc(-c3ccccn3)n2n1)NCc1ccco1		inconclusive: 32.6 µM [activator, partial curve, poor fit]
O=c1[nH]c(/C=C\c2cccs2)nc(O)c1[N+](=O)[O-]	inactive: -35.6%	
CCC(C)N(C(=O)COC(=O)c1cc([N+](=O)[O-])ccc1N1CCOCC1)C1CCS(=O)(=O)C1 (centres undefined)		inconclusive: 7.31 µM [activator, single point]
Fc1ccc(-n2c(=S)[nH]c3cccnc32)cc1	inactive: 2.49%	

Structure (SMILES)	re-replication activation	Potency
Cc1cc(C)n2nc(SCc3c(F)cccc3Cl)nc2n1		inconclusive: 6.51 µM [activator, single point]
CCC1(C)Nc2ccccc2C(=O)N1O (centres undefined)		inconclusive: 13 µM [activator, partial curve, poor fit]
COc1ccc(-c2c(-c3ccccc3)c(C(=O)C(=O)NCCCN(C)C)n3ccc4cc(OC)c(OC)cc4c23)cc1OC		inconclusive: 20.6 µM [activator, single point]
O=C(NP(=O)(N1CCOCC1)N1CCOCC1)C1=C(N2CCOCC2)/C(=C\c2ccccc2)CC1		inconclusive: 14.6 µM [activator, partial curve, poor fit]
OC(CN1CCNCC1)Cn1c2ccccc2c2ccccc21 (centres undefined)		inconclusive: 29.1 µM [activator, single point]
COc1ccc(-c2cc(C(=O)Nc3cc(OC)c(OC)c(OC)c3)no2)cc1OC	inactive: 0.492%	
CC(=O)N/C(=C\c1ccccc1)C(=O)OCC(=O)Nc1ccc(C)c(S(=O)(=O)N(C)C)c1		active: 5.8 µM
Cc1cc(N2CCN(C)CC2)nc2ccc(NC(=S)N3CCCCC3)cc12		inconclusive: 29.1 µM [activator, partial curve, poor fit]
Cc1[nH]n(-c2ncc(-c3ccccc3)s2)c(=O)c1C(c1ccc(Br)cc1)C(C#N)C#N (centres undefined)	inactive: 6.87%	
COCCC(=O)N1CCC(n2nccc2NC(=O)c2ccccc2C)CC1		inconclusive: 18.4 µM [activator, partial curve, poor fit]
CCCOc1ccc2c(c1)C(=NN=C(N)N)c1cc(OCCC)ccc1-2		active: 18.4 µM
Cc1nc(N2CCNCC2)c2c3c(sc2n1)CCCC3	inactive: 1.65%	
CCCN(CC(=O)Nc1ccccc1OC)C(=O)C1=COCCO1		inconclusive: 1.16 µM [activator, full curve, poor fit]
C=C1c2cccc(OC)c2O[C@H](C(=O)OCC)[C@@H]1CCCCCC		active: 20.6 µM
O=C1NC(=Nc2ccc(O)cc2)S/C1=C/c1ccco1		active: 2.91 µM
COc1ccccc1CCC(=O)Nc1ccc2c(c1)CN(Cc1ccc(CO)o1)CC2		inconclusive: 16.4 µM [activator, single point]
O=C(COC(=O)/C=C/c1cccc(Br)c1)NC1CCCCCC1	inactive: -4.97%	
CSc1nc2sc(-c3ccccc3)cc2c(=O)n1N	inactive: -218%	
COc1ccc(OC)c2sc(N(CCN(C)C)C(=O)c3cc(Cl)sc3Cl)nc12		inconclusive: 29.1 µM [activator, single point]
Cc1nc(N=C(N)N)nc2c(C)cccc12		inconclusive: 25.9 µM [activator, partial curve, poor fit]
CCOC(=O)N/N=C/c1cn(CCCOc2ccc(C)cc2)c2ccccc12		inconclusive: 20.6 µM [activator, partial curve, poor fit]
COc1cccc(C(=O)/C=C/Nc2ccc(S(=O)(=O)Nc3cc(OC)nc(OC)n3)cc2)c1		inconclusive: 18.4 µM [activator, partial curve, poor fit]

Sorted by length of the SMILES (smallest number first): some entries from above
Structure (SMILES)	re-replication activation	Potency
CCC1(C)Nc2ccccc2C(=O)N1O (centres undefined)		inconclusive: 13 µM [activator, partial curve, poor fit]
CSc1nc2sc(-c3ccccc3)cc2c(=O)n1N	inactive: -218%	
Cc1nc(N2CCNCC2)c2c3c(sc2n1)CCCC3	inactive: 1.65%	
OC(CN1CCNCC1)Cn1c2ccccc2c2ccccc21 (centres undefined)		inconclusive: 29.1 µM [activator, single point]
Cc1cc(C)n2nc(SCc3c(F)cccc3Cl)nc2n1		inconclusive: 6.51 µM [activator, single point]
O=C1NC(=Nc2ccc(O)cc2)S/C1=C/c1ccco1		active: 2.91 µM
COCCC(=O)N1CCC(n2nccc2NC(=O)c2ccccc2C)CC1		inconclusive: 18.4 µM [activator, partial curve, poor fit]
Cc1cc(N2CCN(C)CC2)nc2ccc(NC(=S)N3CCCCC3)cc12		inconclusive: 29.1 µM [activator, partial curve, poor fit]
C=C1c2cccc(OC)c2O[C@H](C(=O)OCC)[C@@H]1CCCCCC		active: 20.6 µM
COc1ccc(OC)c2sc(N(CCN(C)C)C(=O)c3cc(Cl)sc3Cl)nc12		inconclusive: 29.1 µM [activator, single point]
COc1cccc(C(=O)/C=C/Nc2ccc(S(=O)(=O)Nc3cc(OC)nc(OC)n3)cc2)c1		inconclusive: 18.4 µM [activator, partial curve, poor fit]
Cc1[nH]n(-c2ncc(-c3ccccc3)s2)c(=O)c1C(c1ccc(Br)cc1)C(C#N)C#N (centres undefined)	inactive: 6.87%	

From PubChem BioAssay AID624297 (National Center for Advancing Translational Sciences (NCATS), 2012)
